Measured values from US8293489B2, “Methods for detection of biological substances” (priority 2007, dated 2012).

B1: Tumor Necrosis Factor β (TNF β) (protein, UniProt P01374 35-205, looked up)
Lymphotoxin-alpha: LPGVGLTPSAAQTARQHPKMHLAHSTLKPAAHLIGDPSKQNSLLWRANTDRAFLQDGFSLSNNSLLVPTSGIYFVYSQVVFSGKAYSPKATSSPLYLAHEVQLFSSQYPFHVPLLSSQKMVYPGLQEPWLHSMYHGAAFQLTQGDQLSTHTDGIPHLVLSPSTVFFGAFAL
B2: Vascular Endothelial Growth Factor C (VEGF-C) (protein, UniProt P49767 112-227, looked up)
Vascular endothelial growth …: AHYNTEILKSIDNEWRKTQCMPREVCIDVGKEFGVATNTFFKPPCVSVYRCGGCCNSEGLQCMNTSTSYLSKTLFEITVPLSQGPKPVTISFANHTSCRCMSKLDVYRQVHSIIRR
B3: ENDOGLIN (protein, UniProt P17813 26-658, looked up)
Endoglin: ETVHCDLQPVGPERGEVTYTTSQVSKGCVAQAPNAILEVHVLFLEFPTGPSQLELTLQASKQNGTWPREVLLVLSVNSSVFLHLQALGIPLHLAYNSSLVTFQEPPGVNTTELPSFPKTQILEWAAERGPITSAAELNDPQSILLRLGQAQGSLSFCMLEASQDMGRTLEWRPRTPALVRGCHLEGVAGHKEAHILRVLPGHSAGPRTVTVKVELSCAPGDLDAVLILQGPPYVSWLIDANHNMQIWTTGEYSFKIFPEKNIRGFKLPDTPQGLLGEARMLNASIVASFVELPLASIVSLHASSCGGRLQTSPAPIQTTPPKDTCSPELLMSLIQTKCADDAMTLVLKKELVAHLKCTITGLTFWDPSCEAEDRGDKFVLRSAYSSCGMQVSASMISNEAVVNILSSSSPQRKKVHCLNMDSLSFQLGLYLSPHFLQASNTIEPGQQSFVQVRVSPSVSEFLLQLDSCHLDLGPEGGTVELIQGRAAKGNCVSLLSPSPEGDPRFSFLLHFYTVPIPKTGTLSCTVALRPKTGSQDQEVHRTVFMRLNIISPDLSGCTSKGLVLPAVLGITFGAFLIGALLTAALWYIYSHTRSPSKREPVVAVAAPASSESSSTNHSIGSTQSTPCSTSSMA
B4: Thymus and Activation Regulated Chemokine (TARC) (protein, UniProt Q92583 24-94, looked up)
C-C motif chemokine 17: ARGTNVGRECCLEYFKGAIPLRKLKTWYQTSEDCSRDAIVFVTVQGRAICSDPNNKRVKNAVKYLQSLERS
B5: CNTF (protein, UniProt P26441 1-200, looked up)
Ciliary neurotrophic factor: MAFTEHSPLTPHRRDLCSRSIWLARKIRSDLTALTESYVKHQGLNKNINLDSADGMPVASTDQWSELTEAERLQENLQAYRTFHVLLARLLEDQQVHFTPTEGDFHQAIHTLLLQVAAFAYQIEELMILLEYKIPRNEADGMPINVGDGGLFEKKLWGLKVLQELSQWTVRSIHDLRFISSHQTGIPARGSHYIANNKKM
B6: P Selectin (protein, UniProt P16109 42-830, looked up)
P-selectin: WTYHYSTKAYSWNISRKYCQNRYTDLVAIQNKNEIDYLNKVLPYYSSYYWIGIRKNNKTWTWVGTKKALTNEAENWADNEPNNKRNNEDCVEIYIKSPSAPGKWNDEHCLKKKHALCYTASCQDMSCSKQGECLETIGNYTCSCYPGFYGPECEYVRECGELELPQHVLMNCSHPLGNFSFNSQCSFHCTDGYQVNGPSKLECLASGIWTNKPPQCLAAQCPPLKIPERGNMTCLHSAKAFQHQSSCSFSCEEGFALVGPEVVQCTASGVWTAPAPVCKAVQCQHLEAPSEGTMDCVHPLTAFAYGSSCKFECQPGYRVRGLDMLRCIDSGHWSAPLPTCEAISCEPLESPVHGSMDCSPSLRAFQYDTNCSFRCAEGFMLRGADIVRCDNLGQWTAPAPVCQALQCQDLPVPNEARVNCSHPFGAFRYQSVCSFTCNEGLLLVGASVLQCLATGNWNSVPPECQAIPCTPLLSPQNGTMTCVQPLGSSSYKSTCQFICDEGYSLSGPERLDCTRSGRWTDSPPMCEAIKCPELFAPEQGSLDCSDTRGEFNVGSTCHFSCDNGFKLEGPNNVECTTSGRWSATPPTCKGIASLPTPGVQCPALTTPGQGTMYCRHHPGTFGFNTTCYFGCNAGFTLIGDSTLSCRPSGQWTAVTPACRAVKCSELHVNKPIAMNCSNLWGNFSYGSICSFHCLEGQLLNGSAQTACQENGHWSTTVPTCQAGPLTIQEALTYFGGAVASTIGLIMGGTLLALLRKRFRQKDDGKCPLNPHSHLGTYGVFTNAAFDPSP
B7: Brain Derived Neurotrophic Factor (BDNF) (protein, UniProt P23560 19-247, looked up)
Neurotrophic factor BDNF …: APMKEANIRGQGGLAYPGVRTHGTLESVNGPKAGSRGLTSLADTFEHVIEELLDEDQKVRPNEENNKDADLYTSRVMLSSQVPLEPPLLFLLEEYKNYLDAANMSMRVRRHSDPARRGELSVCDSISEWVTAADKKTAVDMSGGTVTVLEKVPVSKGQLKQYFYETKCNPMGYTKEGCRGIDKRHWNSQCRTTQSYVRALTMDSKKRIGWRFIRIDTSCVCTLTIKRGR
B8: Placental Growth Factor (PGF) (protein, UniProt P49763 19-221, looked up)
Placenta growth factor: LPAVPPQQWALSAGNGSSEVEVVPFQEVWGRSYCRALERLVDVVSEYPSEVEHMFSPSCVSLLRCTGCCGDENLHCVPVETANVTMQLLKIRSGDRPSYVELTFSQHVRCECRHSPGRQSPDMPGDFRADAPSFLPPRRSLPMLFRMEWGCALTGSQSAVWPSSPVPEEIPRMHPGRNGKKQQRKPLREKMKPERCGDAVPRR
B9: … LIKE GROWTH FACTOR (PlGF) (protein, UniProt P49763 19-221, looked up)
Placenta growth factor: B8 Placenta growth factor
B10: Alpha Fetoprotein (AFP) (protein, UniProt P02771 19-609, looked up)
Alpha-fetoprotein: RTLHRNEYGIASILDSYQCTAEISLADLATIFFAQFVQEATYKEVSKMVKDALTAIEKPTGDEQSSGCLENQLPAFLEELCHEKEILEKYGHSDCCSQSEEGRHNCFLAHKKPTPASIPLFQVPEPVTSCEAYEEDRETFMNKFIYEIARRHPFLYAPTILLWAARYDKIIPSCCKAENAVECFQTKAATVTKELRESSLLNQHACAVMKNFGTRTFQAITVTKLSQKFTKVNFTEIQKLVLDVAHVHEHCCRGDVLDCLQDGEKIMSYICSQQDTLSNKITECCKLTTLERGQCIIHAENDEKPEGLSPNLNRFLGDRDFNQFSSGEKNIFLASFVHEYSRRHPQLAVSVILRVAKGYQELLEKCFQTENPLECQDKGEEELQKYIQESQALAKRSCGLFQKLGEYYLQNAFLVAYTKKAPQLTSSELMAITRKMAATAATCCQLSEDKLLACGEGAADIIIGHLCIRHEMTPVNPGVGQCCTSSYANRRPCFSSLVVDETYVPPAFSDDKFIFHKDLCQAQGVALQTMKQEFLINLVKQKPQITEEQLEAVIADFSGLLEKCCQGQEQEVCFAEEGQKLISKTRAALGV

Legend:
Set-up in all cases: species or system human
[1] = 96 plate colorimetric ELISA comparison of biological substances in various bodily fluids
[2] = tested on: endoglin; assay: Endoglin in plasma, urine, saliva and nasal mucus
[3] = tested on: CNTF; assay: CNTF in plasma, urine, saliva and nasal mucus
[4] = tested on: PlGF; assay: PlGF in plasma, nasal mucus, saliva and urine
[5] = nasal mucus, range in parentheses

Row | Molecule | concentration in NASAL MUCUS [1] | concentration in PLASMA [1] | concentration in SALIVA [1] | concentration in URINE [1] | also measured
1 | B1 | 0 pg/mL | 0 pg/mL | 0 pg/mL | 0 pg/mL | 
2 | B2 | 3449 ± 536 pg/mL | 336.8 ± 52.1 pg/mL | 379.8 ± 57.7 pg/mL |  | 
3 | B3 |  |  |  |  | ENDOGLIN ([2]; NASAL MUCUS): 0.2 ± 0.1 mg/mL; ENDOGLIN/PROTEIN ([2]; NASAL MUCUS): 0.07 ± 0.01; ENDOGLIN/PROTEIN ([2]; PLASMA): 0.38 ± 0.1; ENDOGLIN ([2]; PLASMA, (33) subjects): 2.7 ± 0.1^†a mg/ml; ENDOGLIN ([2]; SALIVA): 0 mg/mL; ENDOGLIN ([2]; URINE): 0 mg/mL; BLOOD CONCENTRATION ([2]; blood, mean ± spread): 12.7 ± 0.2 ng/mL; BLOOD CONCENTRATION (range) ([2]; blood, range in parentheses): (1.1-6.0) ng/ml; NASAL MUCUS CONCENTRATION ([2]; nasal mucus, mean ± spread): 0.8 ± 0.5 ng/mL; NASAL MUCUS CONCENTRATION (range) [2, 5]: (0.02-3.0) ng/ml
4 | B4 | 1303 ± 830 pg/mL | 875 ± 240 pg/mL | 0 pg/mL | 0 pg/mL | 
5 | B5 |  |  |  |  | CNTF ([3]; NASAL MUCUS): 0.003 ± 0.001 µg/mL; CNTF ([3]; PLASMA, (19) subjects): 0.004 ± 0.001 µg/mL; CNTF ([3]; SALIVA): 0.001 ± 0.001 µg/mL; CNTF ([3]; URINE): 0 µg/mL
6 | B6 | 1.64 ± 0.34 pg/mL | 30.4 ± 1.7 pg/mL | 0 pg/mL | 0 pg/mL | 
7 | B7 | 8000 ± 8000 pg/mL | 3.676e+06 ± 529000 pg/mL | 0 pg/mL | 0 pg/mL | 
8 | B8 | 170 ± 50 pg/mL | 11 ± 4 pg/mL | 9 ± 3 pg/mL | 12 ± 4 pg/mL | 
9 | B9 |  |  |  |  | BLOOD CONCENTRATION ([4]; blood, mean ± spread): 21 ± 4 pg/mL; BLOOD CONCENTRATION (range) ([4]; blood, range in parentheses): (0-79) pg/ml; NASAL MUCUS CONCENTRATION ([4]; nasal mucus, mean ± spread): 372 ± 17 pg/mL; NASAL MUCUS CONCENTRATION (range) [4, 5]: (32-1402) pg/ml
10 | B10 | 0 pg/mL | 2700 ± 500 pg/mL | 0 pg/mL | 0 pg/mL | 
